This passage reports binding results from publication PMC12145721.

The target in assay [1] is SCI1-TurboID (STRIPAK complex interactor 1 fused to TurboID) (Sordaria macrospora). The assay can be described thus: proximity labelling; BioID in vivo in S. macrospora: 3 biological replicates, 3 days in liquid BMM at 27 °C; 10 µM biotin for 4 h (SCI1-TurboID, SCI1-miniTurboID) or 30 min (free TurboID control); lysis with 4 % SDS, capture on Strep-Tactin Sepharose, LC-MS with LFQ; volcano plot against free TurboID, FDR = 0.01, s0 = ….

The target of assay [2] is SCI1-miniTurboID (STRIPAK complex interactor 1 fused to miniTurboID) (Sordaria macrospora). The assay is described as above.

Results are given in words; binding and its absence hold for the method and conditions named. Binding seen in cells or lysates may run through a third protein. Here binding means that the protein was enriched with, or labelled near, the bait; the list need not be complete.

B1: PRO22 (protein, UniProt F7VWV9 1-1120)
chain: MTIMNALWSKATSSSGDSAQKSAKPTNDAVNTTSEALPDLSERPNAPALPARPALQRNQPSAPPPAAPSNPPPPVPSGSGSGNANNASAQPQDSLSLAQLRRIVAEFPKSEPIAYDYVYSDMGPIEEEVDEWFFYDFWQYVRLNNANHAFDSAWVKMYGEDETWESVDDDGREKFVRNEVEQLQVSSDKTARVEAIGTLLYIVLGRWTATVKKANLPNLADHKVKSAATKEQLDAMKAGVKLLAKYGGLPPMWDALRKAFELFWADDGDASQRVQANNEELMELMHLMTILYISLQTTMDDVEDMAVARKELLALNPNLVHFMLHATAKLRWDDRNILPQAQVGSATFGIPVAANQHRMLMSSQVFLLFWKSLLLVFGGSKHIAEAKKATAETLSDVKDKEIITASPLDYHVFRQEITSKYPSYIPPQCAIPLEAEQTSILPPLPNHPTRNNGQNGILPGPPNQSASASILHQPVHIATPAPSPPPSPGVGGKGGKKQNYQTNQNFPFMYPPLDATSNSAGGKGGAGLQDLLVGRKWEGSDVPASIIEAGELFSTRTRMTRATRQLWEERERFLKFERGWEGADEDLIDELDLSELTLEEKEELGLLKESEKKKEKHGHEIDLGPRPVDDDIKRRLEAVEEFYKEALPHLQSLVIVLLKAIVAIASSFVQPPPGQQNPGPQNNGRAGGGPPQGRGQNNGNNASNDPPSPSDDNVDEARSREIAAKAVTGIMILLLKWLKLSHILKFEYFTQLLLDSNYLPLVLKLFALHDVQQVVESKTDRIEHSFFYFCASRSGVIPPQGLINPTATDFEDVDVSEDEAAPPAIKRNRSPPGAEKGGPPDASSQPTQQQQQQQRFENSDVQSRPEVDELGYPVNPLPKEPITDFSRRNFFSLINYLRVMQKICKHKAHRNLLLVHYKSSNILRKSLKVPQQELRLYTLKLFKNQVPYCGRKWRQSNMRVITAIYLHCRPELRDEWLSGSDVDAEVEEALPLEQALRSLTHWFNVQRYPERMGAEVTAAMREERDFFTRELEKSDWMGWEGIMAGGGMGMDGGGGGPEPMMGMQGMQGMPGMPGMGMGMNMGMPGMGIGGMPGMGGMAGIEYAAAAAAAQTEHENSMGWS
B1: the binding entry in assay [1] and in assay [2] was “binds” throughout.

B2: PRO11 (protein, UniProt Q70M86 1-845)
chain: MGTNGVHVSFGAGHEMGGVMGNGSGQPPATEYTLQGVMRFLQTEWHRHERDRNAWEIEKQEMRARIANLEGQARRADATQKALKRYVSILEKKVKEQSAALKSGGKEKGVEDEAEAEDNKTKLDRSALIQEKLRPNTKLSGAPNEAENVEIGPPDDESARNELKTFLDQCQAEFTYLMVTPANPQPPRESPPLPILDDFREGEALNQQLEQSYQRSQQSQIRDLLAQQAAAANATNVAAVQSQQQQPQQQQHAVGPRPQTNQPPKGYGELAQGAPMERSSRGQQLHDILKSGETPDWSASMQSQPVEEPTSALSKAPPMVRGDGREPAVPKSASTTDAWDFNESNFQDPNAMPQPTPQQSFSSRPDTDAFPSAENLTKSPNRGALSHRRKSSSGMARRRSAEHELSLGSLQQKAEGTMFKFRFGLRGHLDVVRTVIFSGGGSPGEPEICTAGDDGLVKRFHIPDRHIGQRNADGDLDVAADFTHRGHSGAVLSLASWSPSPNFSTGGRAQGDGWIFSGGQDATIRVWERGRVDPKATLDGHTDAVWALCVLPTNLGAIFGQTNSHGPPDRILLVSGAADGTVKVWAVSAPPQLTSPQPGPGRRGPGGRVRGNSMSSGSAFPSSPQPTTASNSPFHHTLVHTIKRANSEASPTCITALSPNGETFAVSYADAAIIVYDTRSGEEIGTMASLDTYDGTNNTAVNAVVATTVGLDQTQGPGGEDESGGGPTGGGRSMAGSGVEGTIISGHEDRYIRFFDANSGQCTYNMLAHPGSVSSLSLSPDGRELVSAGHDMSLRFWSLETRSCTQEMTCHRSMRGEGVCAVVWSQDGRWVVSSGGDGMVKVYAR
B2: the binding entry in assay [1] and in assay [2] was “binds” in each case.
